Measurements from PMC9655074.
Results are given in words; binding and its absence hold for the method and conditions named. Binding seen in cells or lysates may run through a third protein. Some results given as binding are weak or reduced against the parent protein; the word gives no strength.

The chains behind the UniProt entries cited, without tags or fusion partners. Where a name states a change or a piece, a line headed by the entry shows the natural chain unless it says otherwise. A line that says so, or that is headed by a name, gives the form on record, which may keep a tag or linker.
myc-tagged hnRNP-C1 (P07910, form named): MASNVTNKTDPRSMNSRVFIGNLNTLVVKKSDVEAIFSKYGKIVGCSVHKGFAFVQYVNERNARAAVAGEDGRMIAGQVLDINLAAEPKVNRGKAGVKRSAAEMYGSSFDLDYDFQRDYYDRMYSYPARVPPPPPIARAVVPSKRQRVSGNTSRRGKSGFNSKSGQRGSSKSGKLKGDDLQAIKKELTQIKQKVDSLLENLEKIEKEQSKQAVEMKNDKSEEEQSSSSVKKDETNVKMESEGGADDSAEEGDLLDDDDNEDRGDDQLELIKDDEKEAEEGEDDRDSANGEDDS
UniProt P03466: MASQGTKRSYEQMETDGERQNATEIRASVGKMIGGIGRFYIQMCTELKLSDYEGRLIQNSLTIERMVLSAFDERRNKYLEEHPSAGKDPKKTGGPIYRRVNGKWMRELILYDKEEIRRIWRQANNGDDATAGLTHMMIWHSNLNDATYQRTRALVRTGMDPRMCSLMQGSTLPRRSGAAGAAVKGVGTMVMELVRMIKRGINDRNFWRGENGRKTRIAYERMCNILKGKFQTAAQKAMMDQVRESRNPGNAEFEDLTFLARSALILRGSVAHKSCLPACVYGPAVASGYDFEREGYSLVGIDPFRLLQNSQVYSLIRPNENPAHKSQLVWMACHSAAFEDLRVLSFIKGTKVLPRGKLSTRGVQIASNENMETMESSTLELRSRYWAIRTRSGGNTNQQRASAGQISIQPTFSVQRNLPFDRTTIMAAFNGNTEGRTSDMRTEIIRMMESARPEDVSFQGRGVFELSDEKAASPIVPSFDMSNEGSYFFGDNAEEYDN
UniProt P15682: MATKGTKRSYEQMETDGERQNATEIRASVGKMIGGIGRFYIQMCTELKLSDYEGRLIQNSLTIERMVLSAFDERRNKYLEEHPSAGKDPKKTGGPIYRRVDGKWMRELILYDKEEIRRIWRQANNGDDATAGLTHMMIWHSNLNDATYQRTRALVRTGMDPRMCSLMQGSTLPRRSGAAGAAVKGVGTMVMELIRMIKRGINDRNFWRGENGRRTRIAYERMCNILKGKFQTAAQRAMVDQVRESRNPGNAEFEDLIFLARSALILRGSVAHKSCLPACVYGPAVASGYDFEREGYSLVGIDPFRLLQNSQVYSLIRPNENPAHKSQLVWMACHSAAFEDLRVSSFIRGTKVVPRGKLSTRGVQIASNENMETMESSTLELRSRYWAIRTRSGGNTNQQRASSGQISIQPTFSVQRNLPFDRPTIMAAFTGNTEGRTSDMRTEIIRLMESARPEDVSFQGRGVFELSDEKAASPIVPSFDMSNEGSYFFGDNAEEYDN

Molecular target: myc-tagged hnRNP-C1 (UniProt P07910)
Test: co-IP

| Substance | binding |
| --- | --- |
| NP of A/PR/8/34(H1N1), untagged, in pcDNA3 (from UniProt P03466 1-498) | binds |
| NP of A/WSN/1933(H1N1) virus, from infection (from UniProt P15682 1-498) | binds |
